The subject of assay [1] is Type 2 Diabetic Subjects. As to the kind of experiment: Biomarkers of oxidative stress and hsCRP, study (c). The conditions noted are these: CAPROS 250 mg twice daily, Atorvastatin 10 mg daily, n = 20. It is filed as in vivo, human. The procedure: Malondialdehyde (MDA) levels were determined as described in Vidyasagar, et al., “Oxidative stress and antioxidant status in acute organophosphorous insecticide poisoning,” Indian J. Pharmacol. (April 2004) 36(2): 76-79. Glutathione levels were determined as described in G. L. Ellman, Arch. Biochem. Biophys. (1959) 82: 70-77 (original determination). Nitric oxide levels were estimated spectrophotometrically as described in Miranda, et al., “A Rapid, Simple Spectrophotometric Method for Simultaneous Detection of Nitrate and Nitrite,” NITRIC OXIDE: Biology and Chemistry (2001) Vol. 5, No. 1, pp. 62-71.
(§1) After screening, all the eligible subjects were randomized to receive either one of the four treatments for a duration of 12 weeks, as follows. Group 1: one capsule of CAPROS® 250 mg twice daily, group 2: one capsule of CAPROS® 500 mg twice daily; group 3: one capsule of Placebo in morning or one capsule of Atorvastatin 10 mg in evening daily; and group 4: only Placebo twice daily.
Nitric oxide, MDA, Glutathione (GSH) and levels thereof were estimated spectrophotometrically as described above, and HsCRP (high sensitivity C-reactive protein) by ELISA method.

The test system of assay [2] is Type 2 Diabetic Subjects. Kind of assay: Glycosylated Hemoglobin A1c, study (c). The conditions noted are these: CAPROS 250 mg twice daily, Atorvastatin 10 mg daily, n = 20. In kind it is in vivo, human. The protocol:
as §1
All the subjects had undergone complete physical examination, safety lab evaluations at baseline and at the end of the treatment. Samples were collected after an overnight fast of 12 hrs after the last dose of medication for determination of haemoglobin, HbA1c, blood urea and serum creatinine, liver function test, and lipid profile (Total cholesterol (TC), High density lipoprotein cholesterol (HDL-C), low density lipoprotein cholesterol (LDL-C)), and results obtained using appropriate standard techniques.

Molecules are shown by their SMILES.

In the case of `CC(C)c1c(C(=O)Nc2ccccc2)c(-c2ccccc2)c(-c2ccc(F)cc2)n1CC[C@@H](O)C[C@@H](O)CC(=O)O` [Atorvastatin], the “Absolute change in GSH” value in assay [1] (12 weeks) was determined as 222.99 ± 140.15 μM/L. Moreover, the “Mean percentage change in GSH” value in assay [1] (12 weeks) is on record as 68.40 ± 58.76%. Further, the GSH stood at 641.8 ± 150.2 μM/L in assay [1] (Post TT, 12 weeks) and 418.8 ± 166.7 μM/L in assay [1] (Pre TT). Further, the “absolute change in HbA1c” value in assay [2] (12 weeks) is on record as −0.64 ± 0.23%. Also, the HbA1c in assay [2] (Post TT, 12 weeks) is 6.99 ± 0.39%; in assay [2] (Pre TT), 7.62 ± 0.33%.

The record behind these values is patent US8962576B2, “Compositions and method for improving endothelial function and cardiovascular health” (Natreon, Inc., priority 2012, dated 2015).
